Assay results as given in patent publication US5436127A, “Epitope-related peptides of human parvovirus” (Shin-Etsu Chemical Co., Ltd., priority 1992, dated 1995).
Part of at least one peptide drawing is inferred or uncertain, most often the ends.

Columns and labels:
[1] = tested on: anti-human parvovirus B19 antibody (IgG); test: ELISA detection of IgG antibody in serum of a patient infected with human parvovirus B19 (peptide adsorbed on polystyrene microplate); type: binding; details: for reactivity with the anti-human parvovirus B19 antibody (absorbance at 492 nm, FIG. 2): patient serum diluted 200 times, peptide 10 μg/ml coated, HRP-labeled anti-human IgG
[2] = tested on: anti-human parvovirus B19 antibodies (IgM); test: ELISA detection of IgM antibodies in serum of a patient infected with human parvovirus B19; type: binding; details: HRP-labeled anti-human IgM

Compound | response to the anti-human parvovirus B19 antibodies in the acute stage of the patient (FIG. 2) ([1]; acute stage serum) | reactivity with the anti-human parvovirus B19 antibody (absorbance at 492 nm, FIG. 2) [1] | reactivity with IgM among the anti-human parvovirus B19 antibodies (FIG. 3) [2]
CC(C)C[C@H](NC(=O)CNC(=O)[C@@H](NC(=O)[C@H](CC(C)C)NC(=O)[C@H](C)NC(=O)[C@H](CCCCN)NC(=O)CNC(=O)[C@H](C)NC(=O)CNC(=O)[C@@H](NC(=O)[C@H](CC(N)=O)NC(=O)[C@H](CO)NC(=O)[C@H](CO)NC(=O)[C@H](CC(=O)O)NC(=O)CNC(=O)[C@H](CCC(=O)O)NC(=O)[C@H](CCCCN)NC(=O)[C@@H](NC(=O)[C@@H](N)CO)[C@@H](C)O)[C@@H](C)O)[C@@H](C)O)C(=O)N[C@@H](CO)C(=O)N[C@H](C(=O)NCC(=O)O)[C@@H](C)O [formula (2)] | strong response | high reactivity | 
CC[C@H](C)[C@H](N)C(=O)N[C@@H](Cc1c[nH]cn1)C(=O)N[C@@H](CC(=O)O)C(=O)N[C@@H](Cc1ccccc1)C(=O)N[C@@H](CCCNC(=N)N)C(=O)N[C@@H](Cc1ccc(O)cc1)C(=O)N[C@@H](CO)C(=O)N[C@@H](CCC(N)=O)C(=O)N[C@@H](CC(C)C)C(=O)N[C@@H](C)C(=O)N[C@@H](CCCCN)C(=O)N[C@@H](CC(C)C)C(=O)NCC(=O)N[C@H](C(=O)N[C@@H](CC(N)=O)C(=O)N1CCC[C@H]1C(=O)N[C@@H](Cc1ccc(O)cc1)C(=O)N[C@H](C(=O)N[C@@H](Cc1c[nH]cn1)C(=O)N[C@@H](Cc1c[nH]c2ccccc12)C(=O)N[C@H](C(=O)N[C@H](C(=O)N[C@@H](C)C(=O)N[C@@H](CC(=O)O)C(=O)N[C@@H](CCC(=O)O)C(=O)O)C(C)C)[C@@H](C)O)[C@@H](C)O)[C@@H](C)CC [formula (1)] |  | high reactivity | high reactivity
